Test results from the supplement of paper PMC9671908.
Structures can show the parent of a compound that is named as a salt. The list shows a part of the results. Repeats are few or missing, and single values can be far off.

Each compound was assayed on MIA PaCa-2 persister (assay: persister cell viability relative to untreated persister control; higher = more surviving persister cells). Settings: treatment time: 9 days; cell state: persister (100 nM gemcitabine + 100 nM Torin1).

| Compound | persister cell viability [%] |
| --- | --- |
| CC[C@H](Nc1ncnc2[nH]cnc12)c1nc2cccc(F)c2c(=O)n1-c1ccccc1 [Idelalisib] (inhibitor concentration: 30µM) | 100 |
| CC(C)(C)c1cnc(CSc2cnc(NC(=O)C3CCNCC3)s2)o1 (inhibitor concentration: 30nM) | 63 |
| Cc1cc(-c2ccccc2)cc(C(=O)NNS(=O)(=O)c2ccccc2)c1F (inhibitor concentration: 30µM) | 93 |
| C[C@@]1(C(=O)Nc2ccc(F)nc2)CCCN1c1nc(Nc2cc(C3CC3)n[nH]2)c2cccn2n1 (inhibitor concentration: 10µM) | 97 |
| CC(C)NC[C@@H](C(=O)N1CCN(c2ncnc3c2[C@H](C)C[C@H]3O)CC1)c1ccc(Cl)cc1 (inhibitor concentration: 30µM) | 98.5 |
| CC[C@H](C)n1cc(C)c2c(C(=O)NCc3c(C)cc(C)[nH]c3=O)cc(-c3ccc(N4CCNCC4)nc3)cc21 (inhibitor concentration: 3µM) | 149 |
| CC(C)[C@H](NC(=O)[C@H](CCC(=O)O)NC(=O)[C@H](C)NC(=O)OC(C)(C)C)C(=O)N[C@H](C=O)CC(=O)O [Boc-AEVD-CHO (trifluoroacetate-salt)] (inhibitor concentration: 10µM) | 95.5 |
| COC1=CC(c2cc3ccccc3[nH]2)=N/C1=C\c1[nH]c(C)cc1C [Obatoclax (mesylate)] (inhibitor concentration: 30nM) | 99 |
| Cn1cc(CNCC2CCN(c3ncc(C(=O)NO)cn3)CC2)c2ccccc21 (inhibitor concentration: 10nM) | 106 |
| CC(=O)O[C@@H]1[C@@H](OC(C)=O)[C@@H](O)[C@H](Oc2c(-c3ccc(O)cc3)oc3cc(O)cc(O)c3c2=O)O[C@H]1C (inhibitor concentration: 1µM) | 150 |
| O=C(NC1CCOCC1)c1ccc(-c2cc(-c3c[nH]nc3-c3ccccn3)ccn2)cc1 (inhibitor concentration: 10µM) | 95 |
| CCOC(=O)CCNc1cc(N2CCc3ccccc3CC2)nc(-c2ccccn2)n1 (inhibitor concentration: 1µM) | 79 |
| N#Cc1cnc(Nc2cc(NC[C@H]3CNCCO3)c(C(F)(F)F)cn2)cn1 (inhibitor concentration: 3µM) | 16 |
| CC[C@@H]1C(=O)N(C)c2cnc(Nc3ccc(C(=O)N[C@H]4CC[C@H](N5CCN(CC6CC6)CC5)CC4)cc3OC)nc2N1C(C)C [Volasertib] (inhibitor concentration: 100nM) | 100 |
| COc1cc2c(NC3CCN(C)CC3)cc(-c3ccc(C)o3)nc2cc1OCCCN1CCCC1 (inhibitor concentration: 10nM) | 101 |
| Cn1ncc(Cl)c1-c1cc(C(=O)N[C@H](CN)Cc2ccc(F)c(F)c2)oc1Cl [Uprosertib] (inhibitor concentration: 3µM) | 102 |
| C=CCn1c(=O)c2cnc(Nc3ccc(N4CCN(C)CC4)cc3)nc2n1-c1cccc(C(C)(C)O)n1 [Adavosertib] (inhibitor concentration: 100nM) | 20 |

Not a retest: entries from further up.

| Compound | persister cell viability [%] |
| --- | --- |
| C[C@@]1(C(=O)Nc2ccc(F)nc2)CCCN1c1nc(Nc2cc(C3CC3)n[nH]2)c2cccn2n1 (inhibitor concentration: 10µM) | 97 |
| CC(C)NC[C@@H](C(=O)N1CCN(c2ncnc3c2[C@H](C)C[C@H]3O)CC1)c1ccc(Cl)cc1 (inhibitor concentration: 30µM) | 98.5 |
| CC[C@H](C)n1cc(C)c2c(C(=O)NCc3c(C)cc(C)[nH]c3=O)cc(-c3ccc(N4CCNCC4)nc3)cc21 (inhibitor concentration: 3µM) | 149 |
| CC(C)[C@H](NC(=O)[C@H](CCC(=O)O)NC(=O)[C@H](C)NC(=O)OC(C)(C)C)C(=O)N[C@H](C=O)CC(=O)O [Boc-AEVD-CHO (trifluoroacetate-salt)] (inhibitor concentration: 10µM) | 95.5 |
| COC1=CC(c2cc3ccccc3[nH]2)=N/C1=C\c1[nH]c(C)cc1C [Obatoclax (mesylate)] (inhibitor concentration: 30nM) | 99 |
| Cn1cc(CNCC2CCN(c3ncc(C(=O)NO)cn3)CC2)c2ccccc21 (inhibitor concentration: 10nM) | 106 |
| CC(=O)O[C@@H]1[C@@H](OC(C)=O)[C@@H](O)[C@H](Oc2c(-c3ccc(O)cc3)oc3cc(O)cc(O)c3c2=O)O[C@H]1C (inhibitor concentration: 1µM) | 150 |
| O=C(NC1CCOCC1)c1ccc(-c2cc(-c3c[nH]nc3-c3ccccn3)ccn2)cc1 (inhibitor concentration: 10µM) | 95 |
| CCOC(=O)CCNc1cc(N2CCc3ccccc3CC2)nc(-c2ccccn2)n1 (inhibitor concentration: 1µM) | 79 |
| N#Cc1cnc(Nc2cc(NC[C@H]3CNCCO3)c(C(F)(F)F)cn2)cn1 (inhibitor concentration: 3µM) | 16 |

(next part)

| Compound | persister cell viability [%] |
| --- | --- |
| Cc1c2c(nn1C)CSCc1cc(n(C)n1)CSc1cc(c3ccccc3c1)OCCCc1c(C(=O)O)n(C)c3c-2c(Cl)ccc13 (inhibitor concentration: 10µM) | 5 |
| Cc1nn(-c2nc3ccc(Cl)c(Cl)c3[nH]2)c(O)c1C1OC(=O)c2ccccc21 (centres undefined) (inhibitor concentration: 10µM) | 66.7 |
| COC(=O)c1ccc([C@H]2c3[nH]c4ccccc4c3C[C@H](C(=O)OC)N2C(=O)CCl)cc1 (inhibitor concentration: 100nM) | 5 |
| CN1C(=O)[C@@H](NC(=O)c2cc(Cc3ccccc3)on2)COc2ccccc21 (inhibitor concentration: 30µM) | 98 |
| C[C@@H]1COCCN1c1cc(=O)n2c(n1)N(Cc1cncc(Cl)c1)[C@H](C(F)(F)F)CC2 (inhibitor concentration: 10µM) | 15 |
| CC(=O)N[C@@H](CCCCN)C(=O)O [N-acetyl-L-lysine] (inhibitor concentration: 10µM) | 99 |
| O[C@H]1CC[C@H](Nc2ncc3nc(Nc4c(F)cc(F)cc4F)n([C@H]4CCOC4)c3n2)CC1 [Tanzisertib] (inhibitor concentration: 10µM) | 110 |
| Nc1nc2cc(CC[C@H]3C[C@@H](n4ccc5c(N)ncnc54)[C@H](O)[C@@H]3O)ccc2cc1Br (inhibitor concentration: 30µM) | 90.5 |
| c1cc(-c2cnn3cc(-c4ccc(OCCN5CCCCC5)cc4)cnc23)ccn1 [Dorsomorphin (hydrochloride)] (inhibitor concentration: 10µM) | 99 |
| Cc1cc(Nc2cc(N3CCN(C)CC3)nc(Sc3ccc(NC(=O)C4CC4)cc3)n2)n[nH]1 (inhibitor concentration: 300nM) | 96.5 |
| CN1CCN(c2ccc(-c3ccncc3-c3cc(F)c(O)c(F)c3)cc2)CC1 (inhibitor concentration: 1µM) | 215 |
| CN(C)c1nc(N(C)C)nc(N(C)C)n1 [Altretamine] (inhibitor concentration: 10µM) | 99.5 |
| Cc1c[nH]c2nccc(Oc3c(F)cc(Nc4cc(Cl)nc(N)n4)cc3F)c12 [Azaindole 1] (inhibitor concentration: 1µM) | 56 |
| CC[C@@H]1C(=O)N(C)c2cnc(Nc3ccc(C(=O)NC4CCN(C)CC4)cc3OC)nc2N1C1CCCC1 (inhibitor concentration: 30nM) | 101 |
| CN1C(=O)C(c2c[nH]c3ccccc23)=C(c2c[nH]c3ccccc23)C1=O [Bisindolylmaleimide V] (inhibitor concentration: 30µM) | 430 |
| COc1ccc(C(=O)N2c3ccccc3Sc3ccc(Cl)cc32)cc1 (inhibitor concentration: 1µM) | 76 |
| COc1ccc([C@@H](O)c2cc(-c3ncnc4cc(N5CCOCC5)ccc34)c(F)cc2Cl)nn1 [Nedisertib] (inhibitor concentration: 10µM) | 83 |
